Not every detail of the peptide structures is certain; ends, links or a residue may be inferred. Residues, ends and D or L forms follow the SMILES beside them. *: point of attachment. Desaminotyrosyl = O=C(CCc1ccc(O)cc1)*
What was measured:
[1] = test system: opiate-naive rats; test: Antagonism of NPFF-induced quasi-morphine-abstinence syndrome in opiate-naive rats; type: in vivo, Sprague-Dawley rats
[2] = test system: morphine-dependent rats; test: Naloxone-precipitated abstinence in morphine-dependent rats; type: in vivo, Sprague-Dawley rats
[3] = test system: morphine-dependent rats; test: Small pilot experiments: NPFF-like precipitation of opiate abstinence signs by daY8Ra; type: in vivo; details: doses of 2-24 μg

CC(C)C[C@H](NC(=O)[C@H](Cc1ccccc1)NC(=O)CCc1ccc(O)cc1)C(=O)N[C@@H](Cc1ccccc1)C(=O)N[C@@H](CCC(N)=O)C(=O)N1CCC[C@H]1C(=O)N[C@@H](CCC(N)=O)C(=O)N[C@@H](CCCNC(=N)N)C(N)=O [daY8Ra, desaminoYFLFQPQRamide] (Desaminotyrosyl-FLFQPQR-NH2)
frequencies of particular categories of abstinence-like signs (shakes/tremors, writhes/gasps, teeth chatter/chewing, miscellaneous) vs saline ([1]; 600 ng i.c.v. pretreatment, 10 μg NPFF i.c.v.): significantly lower frequencies | fewer overall abstinence-like signs than saline-pretreated group following NPFF injection ([1]; 600 ng i.c.v. pretreatment, 10 μg NPFF i.c.v. 14 min later, observed 20 minutes): approximately 90% | pilot: effect of the chosen dose on actions of NPFF ([1]; 600 ng i.c.v., small pilot experiments): antagonized actions of NPFF without itself inducing NPFF-like effects | abstinence-like signs following the peptide injection itself (total frequency, M±SEM) ([1]; opiate-naive rats, 600 ng i.c.v., observed 12 minutes from onset of injection, before NPFF): 3.00±0.72 | fewer overall abstinence signs than saline-pretreated controls after naloxone ([2]; 600 ng i.c.v. pretreatment, 10 μg naloxone HCl i.c.v. 28 min later, observed 20 minutes): ~80% | frequencies of categories of abstinence signs (shakes/tremors, writhes/gasps, teeth chatter/chewing, ptosis) vs saline ([2]; 600 ng i.c.v. pretreatment, 10 μg naloxone i.c.v.): significantly lower frequencies | abstinence signs following the peptide injection itself (total frequency, M±SEM) ([2]; morphine-dependent rats, 600 ng i.c.v., observed 14 minutes from onset of injection, before naloxone): 4.14±1.55 | pilot: NPFF-like effect at higher doses [3]: precipitate some opiate abstinence signs

Reference: patent US5908832A, “Peptide analog” (University of Houston - Clearlake, priority 1991, dated 1999)
